Reference: patent US20120027773A1
Numbering of substitutions follows the chain as printed. These are yes or no findings as the source states them, for the method shown. Some binding calls cover weakened binding; strength is not graded here.

Sequences of proteins named here, by UniProt entry; tags and fusion partners are left off. Residues count along the entry.
UniProt Q04912, residues 25-571: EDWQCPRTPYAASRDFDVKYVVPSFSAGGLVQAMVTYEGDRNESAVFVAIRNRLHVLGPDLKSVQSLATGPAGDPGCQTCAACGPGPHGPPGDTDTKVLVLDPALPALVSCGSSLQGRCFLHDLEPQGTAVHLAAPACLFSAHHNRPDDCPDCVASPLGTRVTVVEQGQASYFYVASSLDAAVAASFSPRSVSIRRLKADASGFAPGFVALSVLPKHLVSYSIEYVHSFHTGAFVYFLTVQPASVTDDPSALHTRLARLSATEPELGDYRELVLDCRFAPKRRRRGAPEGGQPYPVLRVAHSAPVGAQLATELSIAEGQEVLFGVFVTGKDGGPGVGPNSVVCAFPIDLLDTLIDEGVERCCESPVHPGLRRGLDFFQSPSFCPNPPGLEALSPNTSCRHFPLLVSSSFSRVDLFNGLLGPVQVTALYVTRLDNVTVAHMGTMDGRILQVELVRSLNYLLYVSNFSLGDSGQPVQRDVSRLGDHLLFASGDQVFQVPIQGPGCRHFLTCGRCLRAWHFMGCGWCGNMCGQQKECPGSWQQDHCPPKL

B1: 18H09 (antibody, mouse IgG1, V domains shown)
VH: EVQLQESGPSLVKPSQTLSLTCYVTGDSITSDYWNWIRKFPGNKLEYMGYISYSGSTYYNPSLKSRISITRDTSKNQFYLRLNSVTTEDTATYYCARTHILTIAYWGQGTLVTVSA
VL: QAVVTQESALTTSPGETVTLTCRSSAGAVTTSNFANWVQEKPDHLFTGLIGDTNIRAPGVPARFSGSLIGDKAALTITGAQTEDEAIYFCALWYSNHYWVFGGGTKLTVLG
B2: 07F01 (antibody, mouse IgG1, kappa, V domains shown)
VH: EVKLLESGGGLVQPGGSLKLSCAASGFDFSRHWMSWVRLAPGKGLEWIAEINPDSRTINYTPSLKEKFIISRDNAKNSLFLQMNRVRSEDTALYYCARRVRIHYYGAMDCWGQGTSVTVSS
VL: DIVLTQSQKIVSTSVGARVSVTCKASQNVGSSLVWYQQKPGQSPKTLIYSASFRYSGVPDRFTGSGSGTDFTLTISNVQSEDLADYFCQQYNNYPLTFGAGTKLELKR
B3: 17F06 (antibody, mouse IgG2a, V domains shown)
VH: EVKLVESGGGLVKPGASLKLSCAASGFIFSSYGMSWVRQTSDKRLEWVASISSGGGTTYYLDTVKGRFTISRENAKDTLYLQMSGLKSEDTALYYCTRGQWLLKFAYWGQGTLVTVSA
VL: QLVLTQSSSASFSLGASAKLTCTLSSQHTTYTIEWYQQLPLKPPKYVMELKKDGSHSTGVGIPDRFSGSSSGADRYLTISNIQPEDEAIYICGVGETIEDQFVYVFGGGTKVTVLG
B4: Sh07F01-62 (antibody, human IgG1, kappa, V domains shown)
VH: EVQLVESGGGLVQPGGSLRLSCAASGFTFSRHWMSWVRQAPGKGLEWVSEINPDSRTINYAPSVKGRFTISRDNAKNSLYLQMNSLRAEDTAVYYCARRVRIHYYGAMDSWGQGTTVTVSS
VL: DIQLTQSQSFVSTSVGDRVTVTCRASQNVGSSLVWYQQKPGKSPKTLIYSASFLYSGVPSRFSGSGSGTEFTLTISSVQPEDFADYFCQQYNNYPLTFGGGTKVEIKR
B5: Sh29B06-78 (antibody, human IgG1, kappa, V domains shown)
VH: QVQLQESGPGLVKPSETLSLTCTVSGGSISSGYWNWIRKPPGKKLEYIGYISYSGKTYYNPSLKSRVTISRDTSKNQFSLKLSSVTAADTAVYYCARSKYDYAMDYWGQGTLVTVSS
VL: DIVMTQSPLSLPVTPGEPASISCRASEIVDNFGISFMNWYLQKPGQSPQLLIYAASNQGSGVPDRFSGSGSGTDFTLKISRVEAEDVGVYYCQQSKEVPPTFGGGTKVEIKR
B6: Sh07F01-83 (antibody, human IgG1, kappa, V domains shown)
VH: B4 VH
VL: B4 VL with Q8P, V11L, T13A, V21I, S43A, V78L, D85T, F87Y
B7: Sh07F01-69 (antibody, human IgG1, kappa, V domains shown)
VH: B4 VH with T28D, A61T, V64L, G66E
VL: B4 VL with Q8P, V11L, T13A, V21I, S43A, V78L, D85T, F87Y
B8: Sh07F01-2 (antibody, human IgG1, kappa, V domains shown)
VH: B2 VH with C110S
VL: B2 VL
B9: Sh29B06-9 (antibody, human IgG1, kappa, V domains shown)
VH: EVQLQESGPSLVKPSQTLSLTCSVTGDSITSGYWNWIRKFPGNKLEYMGYISYSGKTYYNPSLKSRISITRDTSKNHYYLQLISVTAEDTATYYCARSKYDYAMDYWGQGTSVTVSS
VL: B5 VL
B10: Sh29B06-23 (antibody, human IgG1, kappa, V domains shown)
VH: B5 VH with G27D, S30T, I48M, V67I, F78Y
VL: B5 VL

The binders below were run against recombinant human RON SEMA and PSI domains (human) (UniProt Q04912) (assay: SPR (summary of Table 6)).

binding, binds:
B1, B2, B3

The binders below were run against recombinant human RON SEMA and PSI domains (human) (UniProt Q04912) (assay: SPR (summary of Table 23)).

binding, binds:
B4, B5

Each binder was assayed against recombinant human RON SEMA and PSI domains (human) (UniProt Q04912) (assay: SPR 37 C (summary of Table 20)).

binding, binds:
B4, B6, B7, B8, B9, B10

What follows are binders tested against recombinant human RON SEMA and PSI domains (human) (UniProt Q04912) (assay: ECL competition assay: antibody titrated on plate-coated hRON SEMA+PSI; blocked ligand MSP, detected with biotinylated anti-MSP antibody).

binding, binds:
B1, B2
